This passage reports AC50 results from PubChem BioAssay AID1487 (National Center for Advancing Translational Sciences (NCATS), 2009).

The list shows a part of the results. Further columns of the screen follow, without active or inactive calls. Most of these compounds were active or inconclusive in the main read-out, so they are no random draw. The note in brackets gives the kind of curve behind each potency; many fits are weak.

A short description of the assay: qHTS Assay for Modulators of Lamin A Splicing. The note with it: HeLa LMNA splicing GFP/RFP minigene ratio, 48 h. Put shortly: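 S3 HeLa stable clones carrying a lamin A-EGFP splicing minigene plus DsRed2 were seeded at 600 cells/well in Opti-MEM with 2% FBS, pin-dosed and incubated 48 h at 37°C. Acumen cytometry (488 nm) gave the GFP/RFP total-intensity ratio.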

[1] abbreviates: measured here: RFP viability control channel.
[2] abbreviates: measured here: GFP splicing reporter channel.

With `CCN(CC)S(=O)(=O)c1cccc(C(=O)Nc2ccc(C#N)cc2)c1`, the AC50 under setting [1] was 7.08 µM [rising, full curve].
The same measure, in the same setting: the same measure for `O=C(Nc1nnc(-c2cccs2)o1)c1ccc(S(=O)(=O)N2CCOCC2)cc1`: 3.55 µM [rising, partial curve, poor fit].
For `COc1cc(CNC(=O)c2ccc3nc(CCc4ccccc4)oc3c2)cc(OC)c1OC`, the AC50 under setting [2] is 1.41 µM [falling, full curve, poor fit] and the concentration at half-maximal activity (AC50) under setting [1] is 20 µM [falling, partial curve, poor fit].
Take `CCCCn1nnnc1SCC(=O)Nc1sc2c(c1C#N)CCCC2`: under setting [1], the AC50 was 14.1 µM [rising, partial curve].
Still for that read-out and setting: the same measure for `COC(=O)Nc1ccc(SCC(=O)c2ccccc2)cc1`: 2.51 µM [falling, partial curve].
Turning to `Cc1ccsc1C(=CCCN1CCC[C@@H](C(=O)O)C1)c1sccc1C`, the AC50 under setting [2] was 0.001 µM [falling, full curve, poor fit] and the AC50 under setting [1] was 25.1 µM [rising, single point].
With `CCOc1ccc(N2C(=O)CCC2=O)cc1`, the AC50 runs as follows: under setting [2], 4.47 µM [falling, full curve, poor fit]; under setting [1], 4.47 µM [falling, full curve, poor fit].
`O=C(NNc1cccc(Cl)n1)Nc1ccccc1F`: the AC50 under setting [1] is 0.0224 µM [falling, full curve, poor fit].
For `CCCCCCCCC(=O)NC(NC(=S)N1CCOCC1)C(Cl)(Cl)Cl` (stereo not drawn), under setting [1], the AC50 was 14.1 µM [rising, single point].
Regarding `CCOC(=O)c1[nH]c2ccc(OC)cc2c1NC(=O)C(C)N1CCSCC1` (stereo not drawn), the AC50 under setting [2] was 3.16 µM [rising, partial curve, poor fit].
For the compound `Fc1ccc(Nc2nc(-c3ccncc3)nc3ccccc23)cc1F`, under setting [1], the AC50 was 2 µM [rising, full curve].
On to `O=C(Cn1cnc([N+](=O)[O-])n1)N/N=C/c1cc(Cl)ccc1O`, for which the AC50 under setting [1] was 14.1 µM [rising, single point].
For `CN(C)S(=O)(=O)c1ccc(C(=O)OCC(=O)c2ccc3c(c2)NC(=O)CO3)cc1`, the AC50 under setting [2] was 14.1 µM [rising, single point].
On to `O=C(NC(Cc1c[nH]c2ccccc12)C(=O)Nc1ccc(F)cc1)c1cccs1` (stereo not drawn), for which, under setting [1], the AC50 was 11.2 µM [rising, partial curve].
Still for that read-out and setting: the same measure for `O=C(NC12CC3CC(CC(C3)C1)C2)c1ccc(S(=O)(=O)N2CCOCC2)cc1`: 7.94 µM [rising, partial curve, poor fit].
On to `CC(=O)Cc1nsc(NC(=O)c2cc(-c3ccccc3Cl)oc2C)n1`, for which the concentration at half-maximal activity (AC50) under setting [2] is 20 µM [rising, single point] and the AC50 under setting [1] is 35.5 µM [rising, single point].
Take `S=C(c1c[nH]c2ccccc12)N1CCOCC1`: under setting [2], the AC50 was 12.6 µM [falling, single point].
With `CC(C)OCCCNC(=O)c1cc(Sc2ccc(F)cc2)nc2ccccc12`, the AC50 under setting [1] is 10 µM [rising, partial curve, poor fit].
As for `Cc1cc(NCCCn2ccnc2)n2nc(C)c(-c3ccc(Cl)cc3)c2n1`, the AC50 runs as follows: under setting [2], 35.5 µM [falling, single point]; under setting [1], 35.5 µM [falling, single point].
As to `CCOC(=O)/C=C1\Nc2ccccc2OC1=O`, the AC50 under setting [1] was 11.2 µM [rising, partial curve].
For the compound `O=C(CCS(=O)(=O)c1ccccc1)NCCS(=O)(=O)c1ccccc1`, the AC50 under setting [2] is 11.2 µM [falling, partial curve, poor fit].
As to `O=S(=O)(Nc1ccc(O)c(Sc2nc3ccccc3s2)c1)c1ccc(F)cc1`, under setting [1], the AC50 was 20 µM [rising, single point].
With `CCOC(=O)CNC(=O)Nc1cc(C(=O)NCc2ccccc2OC)ccc1N1CCCC1`, the AC50 under setting [1] is 28.2 µM [falling, single point].
In the case of `CCCCCn1c(=O)[nH]c2cc(C(=O)NCCCN3CCCCC3)ccc2c1=O`, the AC50 under setting [1] was 6.31 µM [rising, full curve, poor fit].
Turning to `Cc1ccc(-c2noc(CCC(=O)NCc3ccc4c(c3)OCO4)n2)cc1`, under setting [2], the AC50 was 10 µM [rising, partial curve, poor fit].
In the case of `Cc1ccc(C(CC(=O)c2ccco2)SCCO)cc1` (stereo not drawn), the AC50 runs as follows: under setting [2], 12.6 µM [falling, single point]; under setting [1], 28.2 µM [falling, single point].
Turning to `CCc1cc(C(c2cccc(OC)c2)N2CCOCC2)c(NC(=O)c2ccccc2)s1` (stereo not drawn), the AC50 is 25.1 µM [falling, single point] under setting [2] and 12.6 µM [falling, partial curve] under setting [1].
As for `CCC(Oc1ccccc1F)C(=O)N1CCC(c2nc3ccccc3s2)CC1` (stereo not drawn), under setting [1], the AC50 is 0.126 µM [falling, full curve, poor fit].
Take `CCN(C(=O)COC(=O)c1cccc(-n2cnnn2)c1)C1CCCCC1`: under setting [2], the AC50 is 35.5 µM [rising, single point].
On to `N#Cc1c(-c2ccc(Cl)cc2)c(C#N)c(=O)n(N)c1N`, for which the half-maximal activity concentration (AC50) under setting [2] was 25.1 µM [falling, single point].
The same measure, in the same setting: the same measure for `COc1ccc(S(=O)(=O)Nc2ccccc2C(=O)NCc2ccco2)cc1Br`: 0.282 µM [rising, full curve, poor fit]; for `O=C(NCc1ccncc1)c1ccc(Cl)c(S(=O)(=O)N2CCOCC2)c1`: 20 µM [rising, single point].
Consider `COc1cccc(NC(=O)CN2CCN(c3nc(-c4cccc(OC)c4)cs3)CC2)c1`, for which the AC50 was 0.891 µM [rising, full curve, poor fit] under setting [2] and 17.8 µM [rising, partial curve] under setting [1].
In the case of `COc1ccc(O)c(C(c2c(C)[nH][nH]c2=O)c2c(C)[nH][nH]c2=O)c1`, under setting [2], the concentration at half-maximal activity (AC50) is 0.251 µM [falling, full curve, poor fit].
As for `N#Cc1cccc(-c2nc(NCc3cccs3)c3ccccc3n2)c1`, the AC50 under setting [2] was 11.2 µM [falling, partial curve] and the AC50 under setting [1] is 17.8 µM [falling, single point].
Consider `CC(=O)Nc1ccccc1C(=O)C(=O)Nc1ccc(C)c(C)c1`, for which, under setting [1], the AC50 was 35.5 µM [rising, single point].
For `O=C(Cc1ccc(Cl)cc1)NC1CC1`, the AC50 under setting [1] is 11.2 µM [rising, partial curve, poor fit].
With `CCCCCOc1ccc(C(=O)NCC2(c3ccccc3)CCOCC2)cc1`, the concentration at half-maximal activity (AC50) is 11.2 µM [falling, single point] under setting [2] and 12.6 µM [falling, partial curve, poor fit] under setting [1].

In general, AC50 refers to the concentration at which the activity in the assay is half-maximal.
